For some of these results: Strings that start with PEPTIDE1 are HELM notation: dots part the residues, brackets hold end groups and non-standard residues.
Legend:
[1] = peptide made by a vendor (Fmoc solid-phase peptide synthesis; Fmoc-Linker-Rink amide resin; HBTU or DIC, HOBT added); conditions: whole synthesis, scale 0.15 mmole
[2] = peptide made by a vendor (Fmoc solid-phase peptide synthesis; Rink Amide MBHA resin; Fmoc-Linker-Rink amide resin; HBTU or DIC, HOBT added); conditions: whole synthesis, scale of the general procedure 0.4 mm; for final HPLC purity / final purity (method not given): analytical HPLC
[3] = peptide made by a vendor (Fmoc solid-phase peptide synthesis; Fmoc Rink Amide MBHA resin; HBTU or DIC, HOBT added); conditions: whole synthesis

| Substance | isolated yield [1] [%] | final HPLC purity [2] [%] | isolated mass [3] [mg] | final purity (method not given) [2] | isolated yield [2] [%] |
| --- | --- | --- | --- | --- | --- |
| Ac-IRLQISNPDLKDLMVQWFKDGGPSSGAPPPS-NH2 | 20 | >95 |  |  |  |
| Ac-IRLQISNPYLKFIPLKRAIWLIK-NH2 |  |  | 125 | 96.9% | 10.2 |
| Ac-MIILIISFPKHKDWKVILVK-NH2 |  |  | 118 | 97.4% | 4.8 |
| Ac-PFPPLPIGEEAPKDDMVRFFKDLHQYLNVV-NH2 | 20 | >95 |  |  |  |
| PEPTIDE1{[ac].M.A.N.L.G.Y.W.L.A.L.L.F.V.T.M.W.T.D.V.G.L.F.K.K.R.P.K.P.[am]}$$$$V2.0 |  |  | 116 | 96.4% | 7.0 |
| PEPTIDE1{[ac].M.A.N.L.G.Y.W.L.L.A.L.F.V.T.Y.W.T.D.L.G.L.V.K.K.R.P.K.P.[am]}$$$$V2.0 |  |  | 210 | >:97.7% | 14.7 |
| PEPTIDE1{[ac].M.A.N.L.G.Y.W.L.L.L.L.F.V.T.M.W.T.D.V.G.L.A.K.K.R.P.K.P.[am]}$$$$V2.0 |  |  | 145 | 95.4% | 9.4 |
| PEPTIDE1{[ac].M.A.N.L.G.Y.W.L.Y.A.L.F.L.T.M.V.T.D.V.G.L.F.K.K.R.P.K.P.[am]}$$$$V2.0 |  |  | 189 | >96% | 5.8 |

— patent publication US20160009772A1 (priority 2012, published 2016)
